Laboratory results as given in US10087219B2, “Human alpha-defensin 5 variant and uses thereof” (priority 2016, dated 2018).
Not every detail of the peptide structures is certain; ends, links or a residue may be inferred. Positions of bridges follow the written chain, without caps; N, C: chain ends. Residues, ends and D or L forms follow the SMILES beside them. *: point of attachment. Myristoyl = CCCCCCCCCCCCCC(=O)*; Lauroyl = CCCCCCCCCCCC(=O)*

Experiments:
E. coli ATCC 25922 = test: Antibacterial activity (LD90, optical density growth kinetics) against E. coli ATCC 25922; format: cell-based, Escherichia coli; details: for LD90: E. coli ATCC 25922, concentration required for killing 90% bacteria, 2 h incubation at 37° C.; for LD90 value as fraction of that of HD-5: Escherichia coli ATCC 25922
Protocol: (§1) According to measurement of antibacterial activity of antibacterial peptides, the antibacterial potencies of the variants HD-5Myr, HD-Lau and MyrHD-5 of HD-5 as synthesized in Example 2 as well as natural HD-5 were compared.
(§2) The experiments were carried out according to the method for detecting antibacterial activity of antibacterial peptide as reported by Ericksen et al in 2005 (Ericksen B, et al., Antibacterial activity and specificity of the six human {alpha}-defensins. Antimicrob Agents Chemother, 2005).
(§3) Bacteria were inoculated on LB agar plate, and placed in 37° C. constant temperature incubator until bacterial colonies grew. Single colony was picked out, inoculated in 5 ml of LB culture media, and shake cultured at constant temperature of 37° C. for 4-6 h. It was then washed with sterile water twice. Optical density at 600 nm was measured with ELIASA, 1 OD600=4×10^8 CFU/ml, and the bacteria to be tested were diluted with sterile water to 2×10^6 CFU/ml.
(§4) To a sterile 96-plate, 50 μl of sterile water was added to each well, and then A1 well was added with an antibacterial peptide HD-5 sample diluted to a certain concentration. After being mixed evenly, 50 μl was taken therefrom and added to A2 well, thereby being diluted in multiple proportion manner in order, and 50 μl was sucked out from A6 well and discarded. By using the same method, MyrHD-5, HD-5Myr and HD-5Lau samples were diluted. The control well was 50 μl sterile water. Then, to each well, 50 μl of 2×10^6 CFU/ml bacteria was added, and shake cultured at constant temperature of 37° C. for 2 h. Then, 100 μl of LB culture media with double concentration was added separately. Optical density values at 600 nm were measured every 5 minutes in ELIASA at constant temperature of 37° C.
(§5) The measured optical density value minus the optical density value at time 0, and logarithm thereof was taken. In a coordinate system, by using time as abscissa and using logarithm of change value of OD value as ordinate, the obtained points were in linear during logarithmic phase. According to this linear rule, bactericidal rates for different groups were calculated. According to the bactericidal rates at different concentrations, the concentration of antibacterial peptide required for killing 90% bacteria was calculated, and called as LD90.
(§6) The E. coli ATCC 25922, S. aureus ATCC 25923 were purchased from American Type Culture Collection (ATCC). MRSA-1 was methicillin-resistant Staphylococcus aureus isolated in clinic.

S. aureus ATCC 25923 = test: Antibacterial activity (LD90, optical density growth kinetics) against S. aureus ATCC 25923; format: cell-based, Staphylococcus aureus; details: for LD90: S. aureus ATCC 25923, concentration required for killing 90% bacteria, 2 h incubation at 37° C.; for LD90 value as fraction of that of HD-5: Staphylococcus aureus ATCC 25923
Protocol: as §1, §2, §3, §4, §5, §6

MRSA-1 = test: Antibacterial activity (LD90, optical density growth kinetics) against MRSA-1; format: cell-based, methicillin-resistant Staphylococcus aureus; details: for LD90 against methicillin-resistant Staphylococcus aureus compared with LD90 against Staphylococcus aureus ATCC 25923: MRSA versus S. aureus ATCC 25923; for LD90: MRSA-1 isolated in clinic, concentration required for killing 90% bacteria, 2 h incubation at 37° C.; for LD90 value as fraction of that of HD-5: methicillin-resistant Staphylococcus aureus MRSA-1 isolated in clinic
Protocol: as §1, §2, §3, §4, §5, §6

[1] = Micellar structure formation by transmission electron microscopy; format: physicochemical; details: uranyl acetate staining, FIG. 1
Excerpt: Small amounts of HD-5, HD-5Myr and HD-5Lau samples were taken and dropped on copper grid used for electron microscope, excessive samples were sucked out with filter paper, after being dried at room temperature, uranyl acetate was used for staining.

E. coli (ATCC 25922) = test: Salt-tolerance of antibacterial activity under different sodium chloride concentrations; format: cell-based, Escherichia coli; details: FIG. 2
THP-1 cells = test: Release of IL-1β mature body from LPS-stimulated THP-1 macrophages (immunoblotting); format: cell-based; details: LPS 100 ng/ml 3 h, then peptide at 10 μg/ml and 20 μg/ml; FIG. 4
Protocol: THP-1 cells were cultured with RPMI-1640 culture media added with 10% fetal calf serum, and then inoculated on 24-well plate during logarithmic phase, 10^6 cells per well, added with PMA with final concentration of 100 nM for stimulating for 12 h so that cell adhered wall.
Media was exchanged with […] added with 10% fetal calf serum, and stood for 24 hours.
The following groups were set: blank group, LPS stimulation group, LPS+5 mM ATP group (positive control group), LPS+HD-5 group, LPS+HD-5Myr group, LPS+HD-5Lau group. 100 ng/ml lipopolysaccharide (LPS) was used or not to perform stimulation for 3 h, then gently washed twice with 1640 culture media, and then added or not with HD-5Myr or HD-5Lau with final concentration of 10 μg/ml and 20 μg/ml, or ATP with final concentration of 5 mM, or HD-5 with final concentration of 100 μg/ml and 200 μg/ml; and supernatant of each group was collected.
The proteins in supernatant in same volume were concentrated, lysed with protein lysis solution, and then release conditions of IL-1β mature body for different groups were compared by immunoblotting method.

Compound: CCCCCCCCCCCCCC(=O)NCCCC[C@H](NC(=O)CNC(=O)[C@H](CCCNC(=N)N)NC(=O)[C@@H]1CSSC[C@H](NC(=O)[C@@H](NC(=O)[C@H](C)N)[C@@H](C)O)C(=O)N[C@@H](Cc2ccc(O)cc2)C(=O)N[C@H]2CSSC[C@@H]3NC(=O)[C@H](C(C)C)NC(=O)CNC(=O)[C@H](CO)NC(=O)[C@H](CC(C)C)NC(=O)[C@H](CO)NC(=O)[C@H](CCC(=O)O)NC(=O)[C@H](CCCNC(=N)N)NC(=O)[C@H]([C@@H](C)O)NC(=O)[C@H](C)NC(=O)[C@H](CSSC[C@H](NC(=O)[C@H](CC(C)C)NC(=O)[C@H](CCCNC(=N)N)NC(=O)[C@H](Cc4ccc(O)cc4)NC(=O)[C@H](CC(C)C)NC(=O)[C@H](CCCNC(=N)N)NC(=O)CNC(=O)[C@H](CO)NC(=O)[C@H]([C@@H](C)CC)NC(=O)[C@H](CCC(=O)O)NC3=O)C(=O)N1)NC(=O)[C@H](CCCNC(=N)N)NC(=O)CNC(=O)[C@H]([C@@H](C)O)NC(=O)[C@H](CCCNC(=N)N)NC2=O)C(N)=O [HD-5Myr] (H-ATCYCRTGRCATRESLSGVCEISGRLYRLCCRGK(Myristoyl)-NH2; disulfide 3-31, 5-20, 10-30)
- LD90 (E. coli ATCC 25922): 1.601 µg/mL
- LD90 value as fraction of that of HD-5 (E. coli ATCC 25922): less than ⅛
- LD90 (S. aureus ATCC 25923): 1.602 µg/mL
- LD90 value as fraction of that of HD-5 (S. aureus ATCC 25923): about ¼
- LD90 against methicillin-resistant Staphylococcus aureus compared with LD90 against Staphylococcus aureus ATCC 25923 (MRSA-1): far lower
- LD90 (MRSA-1): 0.383 µg/mL
- LD90 value as fraction of that of HD-5 (MRSA-1): about 1/15
- Formation of micellar structure [1]: could form micellar structure
- Bactericidal effects in sodium chloride solution with physiological concentration (E. coli (ATCC 25922); NaCl 135 mM-145 mM): could still exert potent bactericidal effects
- Salt-tolerance of antibacterial activity (E. coli (ATCC 25922); different NaCl concentrations, 25 μl of 100 μg/ml peptide solution per well): significantly superior to HD-5 and HD-5Lau
- Release of IL-1β mature body (THP-1 cells): could promote the release of IL-1β mature body

Compound: CCCCCCCCCCCC(=O)NCCCC[C@H](NC(=O)CNC(=O)[C@H](CCCNC(=N)N)NC(=O)[C@@H]1CSSC[C@H](NC(=O)[C@@H](NC(=O)[C@H](C)N)[C@@H](C)O)C(=O)N[C@@H](Cc2ccc(O)cc2)C(=O)N[C@H]2CSSC[C@@H]3NC(=O)[C@H](C(C)C)NC(=O)CNC(=O)[C@H](CO)NC(=O)[C@H](CC(C)C)NC(=O)[C@H](CO)NC(=O)[C@H](CCC(=O)O)NC(=O)[C@H](CCCNC(=N)N)NC(=O)[C@H]([C@@H](C)O)NC(=O)[C@H](C)NC(=O)[C@H](CSSC[C@H](NC(=O)[C@H](CC(C)C)NC(=O)[C@H](CCCNC(=N)N)NC(=O)[C@H](Cc4ccc(O)cc4)NC(=O)[C@H](CC(C)C)NC(=O)[C@H](CCCNC(=N)N)NC(=O)CNC(=O)[C@H](CO)NC(=O)[C@H]([C@@H](C)CC)NC(=O)[C@H](CCC(=O)O)NC3=O)C(=O)N1)NC(=O)[C@H](CCCNC(=N)N)NC(=O)CNC(=O)[C@H]([C@@H](C)O)NC(=O)[C@H](CCCNC(=N)N)NC2=O)C(N)=O [HD-5Lau] (H-ATCYCRTGRCATRESLSGVCEISGRLYRLCCRGK(Lauroyl)-NH2; disulfide 3-31, 5-20, 10-30)
- LD90 (E. coli ATCC 25922): 2.027 µg/mL
- LD90 value as fraction of that of HD-5 (E. coli ATCC 25922): less than ⅙
- LD90 (S. aureus ATCC 25923): 2.187 µg/mL
- LD90 value as fraction of that of HD-5 (S. aureus ATCC 25923): about ⅓
- LD90 against methicillin-resistant Staphylococcus aureus compared with LD90 against Staphylococcus aureus ATCC 25923 (MRSA-1): far lower
- LD90 (MRSA-1): 1.557 µg/mL
- LD90 value as fraction of that of HD-5 (MRSA-1): about ¼
- Formation of micellar structure [1]: could form micellar structure
- Release of IL-1β mature body (THP-1 cells): could promote the release of IL-1β mature body
